## Library screen at single concentrations

Chains of the proteins cited; added tags and fusions are not shown. Residues count along the entry.
UniProt P9WFT3, whole entry: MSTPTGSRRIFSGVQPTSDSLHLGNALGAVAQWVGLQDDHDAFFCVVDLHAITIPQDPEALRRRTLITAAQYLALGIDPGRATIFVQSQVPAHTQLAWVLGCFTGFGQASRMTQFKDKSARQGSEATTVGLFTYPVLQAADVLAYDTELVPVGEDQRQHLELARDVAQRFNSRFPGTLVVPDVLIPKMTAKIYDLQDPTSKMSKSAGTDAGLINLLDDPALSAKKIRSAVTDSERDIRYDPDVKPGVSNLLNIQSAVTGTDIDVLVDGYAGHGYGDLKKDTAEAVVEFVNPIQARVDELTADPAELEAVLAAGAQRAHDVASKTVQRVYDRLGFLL
UniProt Q4DA54, 1-478: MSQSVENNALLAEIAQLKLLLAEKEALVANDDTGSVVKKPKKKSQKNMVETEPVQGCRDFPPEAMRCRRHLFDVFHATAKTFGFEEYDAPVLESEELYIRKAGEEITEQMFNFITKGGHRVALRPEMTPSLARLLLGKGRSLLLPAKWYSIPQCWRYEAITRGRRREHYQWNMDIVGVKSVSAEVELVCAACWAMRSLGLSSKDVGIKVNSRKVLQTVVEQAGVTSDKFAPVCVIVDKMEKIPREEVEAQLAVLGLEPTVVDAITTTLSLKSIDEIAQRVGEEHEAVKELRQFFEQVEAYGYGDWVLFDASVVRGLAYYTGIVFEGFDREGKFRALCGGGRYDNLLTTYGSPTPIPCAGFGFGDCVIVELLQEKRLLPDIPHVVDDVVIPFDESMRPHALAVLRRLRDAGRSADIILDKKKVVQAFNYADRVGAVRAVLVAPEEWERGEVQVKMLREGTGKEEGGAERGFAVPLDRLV

A: 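Tryptophan-tRNA ligase, Mycobacterium tuberculosis (UniProt P9WFT3). Enzyme assay of tryptophanyl-tRNA synthetase; the read-out is not stated. Tested at 10 µM. Higher most likely means stronger inhibition; the record gives no direction and few retests gave an IC50. Of about 65,000 compounds tested this way, about 64 (0.098%) reached 50% or more in at least one test.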
B: 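Cell assay of Leishmania donovani living inside macrophages; the read-out is not stated. Compounds at 30 µM. Direction is inferred from retests: higher values go with stronger inhibition. About 69,000 compounds were tested under these conditions; 1.5% (about 1,000) showed 50% or more at least once.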
C: 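Enzyme assay of histidyl-tRNA synthetase; the read-out is not stated. Target: Histidine-tRNA ligase, Trypanosoma cruzi CL Brener (UniProt Q4DA54). Concentration: 30 µM. Direction is inferred from retests: higher values go with stronger inhibition. Of about 69,000 compounds tested this way, about 31 (0.045%) reached 50% or more in at least one test.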

Results are given as percent effect.
The record does not define 0% and 100%; most values in the screen are far below 50% and negative numbers occur (in some assays of this library far below -100).
The compounds are a random part of those screened.
Two or more numbers in one place are separate tests of the same structure; such repeats can differ widely.

{"compound": "Cc1n[nH]c(C2CN(C(=O)c3scnc3C)CCO2)n1", "stereo": "centres undefined", "A": -1.956, "B": 6.469, "C": 1.961}
{"compound": "COCC1CN(Cc2cccnc2OC)Cc2cnn(C)c21", "stereo": "centres undefined", "A": 22.07, "B": "3.973 and 2.815", "C": -1.075}
{"compound": "Cc1cnn(CC2CN(Cc3nnc(C4CC4)o3)CCO2)c1", "stereo": "centres undefined", "A": -1.846, "B": -13.76, "C": 1.149}
{"compound": "CC(C)CC(=O)N1CCN(C(=O)N(C)C)CC2(CC(=O)N(C)C2)C1", "stereo": "centres undefined", "A": -3.189, "B": 23.57, "C": -1.604}
{"compound": "Cc1nn(C2CCS(=O)(=O)C2)c(O)c1Cc1ccccc1", "stereo": "centres undefined", "A": -0.4902, "B": 20.59, "C": 0.5848}
{"compound": "O=C1CCC2(CCOC2)CN1Cc1nncn1CCc1ccccc1", "stereo": "centres undefined", "A": 0.2721, "B": 8.595, "C": 3.571}
{"compound": "Cc1cc(N(C)C)nc(N2CCn3c(C)nnc3C2)n1", "A": 1.396, "B": 25.86, "C": 3.571}
{"compound": "Cc1cc(C(=O)NC2CCc3c(ccc(=O)n3CCN(C)C)C2)no1", "stereo": "centres undefined", "B": 15.54, "C": 2.222}
{"compound": "CC(C)CC(C(=O)N1CCCSCC1)N1CCCCC1=O", "stereo": "centres undefined", "A": -4.668, "B": -7.398, "C": 6.897}
{"compound": "CC(C)c1nnc2n1CCN(Cc1nc3c(F)cccc3[nH]1)C2", "A": -4.078, "B": 27.76, "C": 9.392}
{"compound": "Cc1nn(C)c(C)c1C(=O)N1CCN(C(=O)CCC2CCCCC2)CC1", "A": 0.9709, "B": 1.55, "C": 10.59}
{"compound": "CC(c1cccs1)N(C)Cc1cnc(-c2ccccn2)nc1", "stereo": "centres undefined", "A": -2.13, "B": 15.75, "C": 6.726}
{"compound": "O=C(C1CC=CC1)N1CCc2c(COCc3ccncc3)cncc2C1", "A": 1.727, "C": 19.01}
{"compound": "Cc1nc(C)c(CNC[C@@]2(COc3cccnc3)C[C@@H](O)[C@@H](O)C2)s1.Cl.Cl", "B": -91.71}
{"compound": "CN(C)CCN1CC[C@@H]2O[C@@H](COCC(=O)N3CCCC3)CC[C@@H]21", "A": -1.652, "C": 5.263}
{"compound": "Cn1ncc2c(N3CCN(C(=O)c4ccsc4)CC3)ncnc21", "A": -10.47, "B": 16.37, "C": 4.651}
{"compound": "O=C(O)CCc1nc2nccc(C(F)(F)F)n2n1", "B": 13.66, "C": 9.249}
{"compound": "O=C(O)C(F)(F)F.[H][C@]12CCC[C@@]1(COc1ccccn1)CN(C(=O)c1cocn1)C2", "B": 20.04}
{"compound": "O=C(CO)N1CCCC(N2CCN(c3ccccc3F)CC2)C1", "stereo": "centres undefined", "A": 3.709, "B": 19.67, "C": 15.06}
{"compound": "[H][C@@]12COC[C@]1(c1nc(C)no1)CN(S(=O)(=O)C1CC1)C2", "B": 8.691}
{"compound": "c1cnc2c(c1)cc([C@@H]1CCCO1)n2CCN1CCOCC1", "C": 0}
{"compound": "CN(C)C(=O)c1cccn1-c1ccc2c(c1)OCCO2", "A": -1.909, "B": 11.15, "C": 3}
{"compound": "CO[C@H]1CO[C@@]2(CCCN(S(=O)(=O)c3ccccc3)C2)C1", "A": -2.827, "B": 18.8, "C": 4.202}
{"compound": "NC[C@H]1CC[C@H](C(NC(=O)C2CC2)c2ccccn2)CC1", "stereo": "some centres undefined", "B": "6.305 and 0.2927", "C": 14.29}
{"compound": "Cc1nn(C)cc1-c1cncn1CCN(C)C1CCCC1.Cl", "B": 52.65}
{"compound": "O=C(NCc1nc2ccccc2[nH]1)c1cnn2c1OCCC2", "A": -6.307, "B": "31.42 and 15.76", "C": 3.093}
{"compound": "COCCNC(=O)[C@H]1CC[C@@H]2[C@@H](CCN2c2ncc(F)cn2)O1", "A": 7.528, "C": 2.488}
{"compound": "COCC(NC(=O)NCc1sccc1C)c1ccco1", "stereo": "centres undefined", "A": -0.09633, "B": 26.83, "C": 9.091}
{"compound": "CC(C)SCc1cccc(NC2CCN(C)C2=O)c1", "stereo": "centres undefined", "A": 1.019, "B": -11.86, "C": 6.494}
{"compound": "Cc1ccc(CN2CCc3onc(C(=O)Nc4cccnc4)c3C2)o1", "C": 19.55}
{"compound": "c1cc2c(cc1CN1CCN(Cc3noc(C4CC4)n3)CC1)OCO2", "A": -1.161, "B": 11.33, "C": 8.081}

Once more, the final 4:

- COCC(NC(=O)NCc1sccc1C)c1ccco1 (centres undefined) : A: -0.09633%; B: 26.83%; C: 9.091%
- CC(C)SCc1cccc(NC2CCN(C)C2=O)c1 (centres undefined) : A: 1.019%; B: -11.86%; C: 6.494%
- Cc1ccc(CN2CCc3onc(C(=O)Nc4cccnc4)c3C2)o1 : C: 19.55%
- c1cc2c(cc1CN1CCN(Cc3noc(C4CC4)n3)CC1)OCO2 : A: -1.161%; B: 11.33%; C: 8.081%

Data taken from ChEMBL document CHEMBL3988442, “University of Dundee, Small-Polar-MMV Screening Library” (2021).